Reference: US5612208A, “Ascorbate oxidase, gene encoding the same, process for producing the same, and reagent composition using the same” (Amano Pharmaceutical Co., Ltd., priority 1994, dated 1997)
Where two headings read alike, the source gives them in different places. At least one structure is not confirmed: it was looked up by name or label, or the drawing left a doubt.

System: L-ascorbate oxidase (ASOD) of Eupenicillium brefeldianum APC-9315, purified native enzyme
Format: biochemical
Details: incubation with inhibitor at 37° C. for 2 hours, inhibitor concentration not printed
Method: The relative residual activity of ASOD after incubation with various inhibitors at 37° C. for 2 hours.
To 0.1 ml of a sample to be assayed is added 0.5 ml of 10 mM Na2 HPO4 and 0.45 ml of 0.2M KH2 PO4 containing 1 mM EDTA, and the mixture is mixed and preincubated at 30° C. for 5 minutes. To the mixture is added 0.05 ml of a 10 mM substrate solution of L-ascorbic acid in 0,001N HCl containing 1 mM EDTA, followed by incubation at 30° C. for 10 minutes. The reaction is stopped by addition of 3.0 ml of 0.2N HCl, and a reduction in absorbance at 245 nm is measured. The amount of ASOD in the sample which decomposes 1 μmol of L-ascorbic acid per 1 minute is taken as one unit.

CCN(CC)C(=S)S [diethyldithiocarbamate]
Inhibition by inhibitor (relative residual activity), in words: not substantially inhibited | Inhibition by inhibitor (relative residual activity), in words (listed as Diethyldithiocarbamate): uninhibited
